Source: paper PMC10605218
These are yes or no findings as the source states them, for the method shown. In cells and extracts the contact can be indirect. A result given as binding can be weak or reduced; the word gives no strength.

Sequences of proteins named here, by UniProt entry; tags and fusion partners are left off. A change or cut given only in a name is not applied to a line headed by its entry.
UniProt Q13421: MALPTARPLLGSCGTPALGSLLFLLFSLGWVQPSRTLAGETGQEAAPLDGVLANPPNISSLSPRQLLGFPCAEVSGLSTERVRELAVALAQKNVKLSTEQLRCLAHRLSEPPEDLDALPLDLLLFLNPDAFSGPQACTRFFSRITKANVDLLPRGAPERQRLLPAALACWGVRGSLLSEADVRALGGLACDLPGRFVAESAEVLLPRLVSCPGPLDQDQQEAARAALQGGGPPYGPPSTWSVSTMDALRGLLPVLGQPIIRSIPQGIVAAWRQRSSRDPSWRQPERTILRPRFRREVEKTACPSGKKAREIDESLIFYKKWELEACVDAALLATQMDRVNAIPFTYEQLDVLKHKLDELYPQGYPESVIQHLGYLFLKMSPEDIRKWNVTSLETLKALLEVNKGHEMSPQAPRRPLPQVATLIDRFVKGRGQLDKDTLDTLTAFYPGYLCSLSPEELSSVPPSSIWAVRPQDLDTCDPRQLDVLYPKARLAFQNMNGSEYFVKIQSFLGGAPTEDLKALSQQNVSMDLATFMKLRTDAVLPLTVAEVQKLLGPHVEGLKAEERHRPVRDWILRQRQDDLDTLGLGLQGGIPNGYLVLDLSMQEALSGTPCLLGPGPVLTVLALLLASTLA

Biological target: T1, prostate stem cell antigen (PSCA) (human (endogenous in PANC1)) (UniProt O43653)
T1 sequence: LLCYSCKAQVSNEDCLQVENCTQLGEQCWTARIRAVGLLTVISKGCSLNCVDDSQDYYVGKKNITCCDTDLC
Assay: co-IP; PANC1 cell membrane lysate; pre-cleared with protein A agarose beads and rabbit IgG; overnight immunoprecipitation with beads coupled with anti-PSCA antibodies; three washes with PBS; Western blot with anti-MSLN

- binding: binds
Substance: Mesothelin (MSLN) (from UniProt Q13421)
